From patent US20220220206A1, “TREATING CHRONIC LIVER DISEASE” (Mayo Foundation for Medical Education and Research, priority 2019, published 2022)

Tested on: FFC diet-fed C57BL/6J mice (diet-induced NASH)
Assay: FFC diet-induced NASH mouse model, VCAM-1 blockade (antibody or AGI-1067)
Format: in vivo
Details: AGI-1067 25 mg/kg i.p. daily for 15 days, vs vehicle
Source text: C57BL/6J male mice were purchased from Jackson Laboratory (Bar Harbor, Me.). Mice were housed and bred in a temperature-controlled 12:12-hour light-dark cycle facility with free access to diet. The mice were fed either a chow diet (5053 PicoLab Rodent Diet 20, LabDiet, St Louis, Mo.) or a diet rich in fat, fructose, and cholesterol (FFC) at 8-weeks old for 24 weeks. FFC diet consists of 40% energy as fat (12% saturated fatty acid, 0.2% cholesterol) (AIN-76A Western Diet, TestDiet, St Louis, Mo.), with fructose (23.1 g/L) and glucose (18.9 g/L) in the drinking water. The FFC diet induces steatohepatitis with pronounced hepatocellular ballooning, lipoapoptosis, and progressive fibrosis with a high fidelity to the human NASH histology and metabolic profile. At 20 weeks on the diet, the mice were randomized to receive either anti-VCAM-1 neutralizing antibody (M/K-2.7), (Genetex, GTX14360) or IgG isotype antibody (BE0088, InVivoMAb). […] Total caloric intake at the 3rd week of VCAM-1 antibody treatment and the first week of AGI-1067 treatment was calculated based on the weight of food and drinking water consumption. At the third week of anti-VCAM-1 neutralizing antibody treatment, metabolic parameters, including oxygen consumption, carbon dioxide production, and locomotor activity, were measured using a Comprehensive Lab Animal Monitoring System (CLAMS, Columbus Instruments, OH). […] Blood glucose levels and plasma insulin levels were measured using Assure 4 (Arkray, Edina, Minn.) and Ultra-Sensitive Mouse Insulin enzyme-linked immunosorbent assay (ELISA) kit (Crystal Chem Inc., Downers Grove, Ill.), respectively. Homeostasis model assessment of insulin resistance (HOMA-IR) was calculated by using the following formula: HOMA-IR=26×fasting insulin level (ng/mL)×fasting glucose level (mg/dL)/405. […]
Liver triglyceride levels were measured in mouse liver homogenates. […] Photometric absorbance was read at 570 nm using a Synergy H1 microplate reader (BioTek). Serum alanine aminotransferase (ALT) levels were measured by VetScan2 (Abaxis Veterinary Diagnostics, Union City, Calif.). […]

CC(C)(Sc1cc(C(C)(C)C)c(O)c(C(C)(C)C)c1)Sc1cc(C(C)(C)C)c(OC(=O)CCC(=O)O)c(C(C)(C)C)c1 [AGI-1067, succinobucol]
did not alter: caloric intake | liver to body weight ratio | weight gain
